This is one part of the list.
Each target was assayed with CC1Cc2ccccc2N1C(=O)C1CCCN(C1)C(=O)CCl (mixture of isomers) [TRIM25 ligand 11 (diastereomer mixture)] (assay: probe-labelled cysteine peptide fold change vs DMSO (competition) (log2 fold change); higher = less target engagement (more negative = stronger competition)). Details: 50 µM; THP-1; incubation time: 4 h.
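Note: competitive chemoproteomic profiling in live THP-1 cells with an iodoacetamide desthiobiotin (IA-DTB) probe, comparing probe-labelled peptide intensities in compound-treated cells against DMSO-treated controls.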

The chains behind the UniProt entries cited, without tags or fusion partners. Where a name states a change or a piece, a line headed by the entry shows the natural chain unless it says otherwise.
UniProt Q6PCB5: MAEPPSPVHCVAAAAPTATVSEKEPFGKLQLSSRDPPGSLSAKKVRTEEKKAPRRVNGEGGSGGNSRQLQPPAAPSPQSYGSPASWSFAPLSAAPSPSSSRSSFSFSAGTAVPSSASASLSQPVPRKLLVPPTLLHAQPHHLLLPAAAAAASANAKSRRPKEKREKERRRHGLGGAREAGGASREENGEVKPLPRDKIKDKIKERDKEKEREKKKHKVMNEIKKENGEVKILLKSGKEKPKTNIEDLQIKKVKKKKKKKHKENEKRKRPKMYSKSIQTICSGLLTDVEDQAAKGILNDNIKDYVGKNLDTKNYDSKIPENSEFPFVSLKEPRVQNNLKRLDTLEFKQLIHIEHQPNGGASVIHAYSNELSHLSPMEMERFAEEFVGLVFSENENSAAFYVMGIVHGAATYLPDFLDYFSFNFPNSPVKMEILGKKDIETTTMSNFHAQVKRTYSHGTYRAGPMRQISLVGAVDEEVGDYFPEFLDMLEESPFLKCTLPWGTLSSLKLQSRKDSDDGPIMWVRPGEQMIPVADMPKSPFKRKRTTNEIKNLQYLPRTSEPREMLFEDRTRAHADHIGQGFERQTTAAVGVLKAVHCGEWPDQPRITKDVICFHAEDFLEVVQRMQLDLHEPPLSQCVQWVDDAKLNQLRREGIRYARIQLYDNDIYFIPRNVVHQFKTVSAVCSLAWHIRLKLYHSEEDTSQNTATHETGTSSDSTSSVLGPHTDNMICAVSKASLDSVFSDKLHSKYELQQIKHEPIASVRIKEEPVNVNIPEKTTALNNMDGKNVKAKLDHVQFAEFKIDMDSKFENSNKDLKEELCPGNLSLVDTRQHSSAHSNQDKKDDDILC
UniProt Q8IZ73: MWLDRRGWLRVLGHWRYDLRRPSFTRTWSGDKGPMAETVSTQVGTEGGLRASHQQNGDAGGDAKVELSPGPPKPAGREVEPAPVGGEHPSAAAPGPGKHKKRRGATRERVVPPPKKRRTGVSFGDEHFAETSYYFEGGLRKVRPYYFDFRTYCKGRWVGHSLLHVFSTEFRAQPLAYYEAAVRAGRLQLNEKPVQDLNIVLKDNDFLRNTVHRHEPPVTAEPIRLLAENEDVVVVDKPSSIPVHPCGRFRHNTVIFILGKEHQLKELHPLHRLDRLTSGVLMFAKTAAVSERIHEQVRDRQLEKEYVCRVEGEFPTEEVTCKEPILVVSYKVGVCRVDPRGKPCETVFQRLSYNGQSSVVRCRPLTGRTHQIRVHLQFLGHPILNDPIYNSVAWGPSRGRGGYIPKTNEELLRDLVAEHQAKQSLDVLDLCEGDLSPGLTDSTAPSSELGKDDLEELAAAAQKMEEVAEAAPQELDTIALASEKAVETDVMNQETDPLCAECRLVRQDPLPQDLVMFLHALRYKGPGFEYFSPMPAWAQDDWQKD
UniProt Q5VZM2, whole entry, looked up: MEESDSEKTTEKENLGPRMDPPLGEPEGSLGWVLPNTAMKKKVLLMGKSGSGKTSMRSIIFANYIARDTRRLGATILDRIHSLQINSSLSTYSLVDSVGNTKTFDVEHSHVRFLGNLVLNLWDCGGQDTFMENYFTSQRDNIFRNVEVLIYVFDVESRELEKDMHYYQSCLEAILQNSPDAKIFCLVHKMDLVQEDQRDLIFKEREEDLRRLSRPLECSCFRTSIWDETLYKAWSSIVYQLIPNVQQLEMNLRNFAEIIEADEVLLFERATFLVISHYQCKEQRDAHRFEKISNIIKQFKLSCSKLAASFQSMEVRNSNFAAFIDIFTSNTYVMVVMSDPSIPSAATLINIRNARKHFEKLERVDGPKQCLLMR
UniProt Q5VWQ0: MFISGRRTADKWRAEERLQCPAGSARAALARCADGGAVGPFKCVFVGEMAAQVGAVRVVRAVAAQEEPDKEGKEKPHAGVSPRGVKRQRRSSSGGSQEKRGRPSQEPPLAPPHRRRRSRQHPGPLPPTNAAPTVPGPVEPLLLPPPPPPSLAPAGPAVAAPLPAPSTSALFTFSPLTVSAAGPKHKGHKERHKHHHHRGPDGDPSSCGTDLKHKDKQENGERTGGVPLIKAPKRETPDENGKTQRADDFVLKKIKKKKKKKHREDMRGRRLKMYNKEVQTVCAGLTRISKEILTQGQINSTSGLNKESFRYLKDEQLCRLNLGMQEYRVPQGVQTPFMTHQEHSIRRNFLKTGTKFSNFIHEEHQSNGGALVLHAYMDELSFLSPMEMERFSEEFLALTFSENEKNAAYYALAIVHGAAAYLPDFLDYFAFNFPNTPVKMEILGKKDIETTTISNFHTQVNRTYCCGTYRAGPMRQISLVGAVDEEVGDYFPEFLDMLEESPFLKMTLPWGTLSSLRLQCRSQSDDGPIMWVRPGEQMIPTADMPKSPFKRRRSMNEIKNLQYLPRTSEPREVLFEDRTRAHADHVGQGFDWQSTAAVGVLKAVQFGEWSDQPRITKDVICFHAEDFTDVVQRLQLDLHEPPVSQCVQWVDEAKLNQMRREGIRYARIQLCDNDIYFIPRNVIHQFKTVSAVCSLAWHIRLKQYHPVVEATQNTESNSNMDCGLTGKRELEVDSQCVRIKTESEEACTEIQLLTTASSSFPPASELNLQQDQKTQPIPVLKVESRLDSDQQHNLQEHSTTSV
UniProt Q9Y230, whole entry, looked up: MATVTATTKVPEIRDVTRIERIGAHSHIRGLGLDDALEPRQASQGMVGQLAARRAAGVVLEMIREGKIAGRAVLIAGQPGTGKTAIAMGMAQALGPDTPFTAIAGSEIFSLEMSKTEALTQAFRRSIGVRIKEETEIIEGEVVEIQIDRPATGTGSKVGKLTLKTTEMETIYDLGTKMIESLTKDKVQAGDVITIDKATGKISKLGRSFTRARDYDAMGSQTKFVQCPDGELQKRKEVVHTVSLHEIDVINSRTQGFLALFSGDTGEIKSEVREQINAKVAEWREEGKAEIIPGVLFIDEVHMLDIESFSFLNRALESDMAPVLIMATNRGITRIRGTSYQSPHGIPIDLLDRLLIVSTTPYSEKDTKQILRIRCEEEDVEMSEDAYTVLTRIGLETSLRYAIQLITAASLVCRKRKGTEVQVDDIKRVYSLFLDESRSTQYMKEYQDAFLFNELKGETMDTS
UniProt Q92766: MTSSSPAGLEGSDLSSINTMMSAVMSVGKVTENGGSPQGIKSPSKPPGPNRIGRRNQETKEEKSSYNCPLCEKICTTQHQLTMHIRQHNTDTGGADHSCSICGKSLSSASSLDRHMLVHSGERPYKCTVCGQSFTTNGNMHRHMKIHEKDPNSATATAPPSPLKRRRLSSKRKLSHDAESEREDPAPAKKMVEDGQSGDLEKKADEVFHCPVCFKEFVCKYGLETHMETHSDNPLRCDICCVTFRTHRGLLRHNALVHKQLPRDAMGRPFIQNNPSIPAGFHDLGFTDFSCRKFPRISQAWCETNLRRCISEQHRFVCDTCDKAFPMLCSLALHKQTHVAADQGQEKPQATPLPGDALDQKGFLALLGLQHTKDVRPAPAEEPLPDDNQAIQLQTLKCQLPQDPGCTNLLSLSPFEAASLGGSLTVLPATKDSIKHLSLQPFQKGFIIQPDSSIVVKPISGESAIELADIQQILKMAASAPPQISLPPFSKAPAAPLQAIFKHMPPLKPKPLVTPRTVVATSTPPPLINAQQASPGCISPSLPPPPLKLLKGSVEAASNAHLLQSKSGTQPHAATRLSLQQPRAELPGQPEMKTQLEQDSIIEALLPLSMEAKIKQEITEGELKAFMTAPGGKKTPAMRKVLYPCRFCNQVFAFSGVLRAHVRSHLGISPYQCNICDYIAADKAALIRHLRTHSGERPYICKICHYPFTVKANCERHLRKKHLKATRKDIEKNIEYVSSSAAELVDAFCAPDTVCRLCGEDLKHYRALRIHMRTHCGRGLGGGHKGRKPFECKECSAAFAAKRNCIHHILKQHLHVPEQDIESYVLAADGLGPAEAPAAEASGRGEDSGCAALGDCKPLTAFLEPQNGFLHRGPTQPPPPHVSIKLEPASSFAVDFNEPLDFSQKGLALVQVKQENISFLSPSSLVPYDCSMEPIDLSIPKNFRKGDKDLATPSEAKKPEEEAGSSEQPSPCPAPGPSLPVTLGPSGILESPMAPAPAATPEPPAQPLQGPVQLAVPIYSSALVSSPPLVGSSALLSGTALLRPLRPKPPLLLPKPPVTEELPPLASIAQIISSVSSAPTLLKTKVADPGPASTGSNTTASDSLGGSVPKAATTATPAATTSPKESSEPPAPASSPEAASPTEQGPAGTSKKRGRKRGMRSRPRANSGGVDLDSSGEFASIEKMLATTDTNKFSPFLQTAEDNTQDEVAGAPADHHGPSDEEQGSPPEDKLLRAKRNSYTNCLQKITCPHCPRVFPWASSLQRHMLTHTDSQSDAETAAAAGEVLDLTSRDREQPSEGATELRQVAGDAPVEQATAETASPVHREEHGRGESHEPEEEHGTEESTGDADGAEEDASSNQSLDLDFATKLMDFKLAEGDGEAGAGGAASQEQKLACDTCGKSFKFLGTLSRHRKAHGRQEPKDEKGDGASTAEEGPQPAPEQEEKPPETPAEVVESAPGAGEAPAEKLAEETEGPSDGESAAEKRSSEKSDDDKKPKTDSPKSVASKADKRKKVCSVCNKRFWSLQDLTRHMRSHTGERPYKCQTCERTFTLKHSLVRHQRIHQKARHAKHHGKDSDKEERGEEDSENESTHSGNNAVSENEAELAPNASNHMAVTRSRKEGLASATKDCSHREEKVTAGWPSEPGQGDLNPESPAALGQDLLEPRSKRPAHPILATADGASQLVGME
UniProt P23921: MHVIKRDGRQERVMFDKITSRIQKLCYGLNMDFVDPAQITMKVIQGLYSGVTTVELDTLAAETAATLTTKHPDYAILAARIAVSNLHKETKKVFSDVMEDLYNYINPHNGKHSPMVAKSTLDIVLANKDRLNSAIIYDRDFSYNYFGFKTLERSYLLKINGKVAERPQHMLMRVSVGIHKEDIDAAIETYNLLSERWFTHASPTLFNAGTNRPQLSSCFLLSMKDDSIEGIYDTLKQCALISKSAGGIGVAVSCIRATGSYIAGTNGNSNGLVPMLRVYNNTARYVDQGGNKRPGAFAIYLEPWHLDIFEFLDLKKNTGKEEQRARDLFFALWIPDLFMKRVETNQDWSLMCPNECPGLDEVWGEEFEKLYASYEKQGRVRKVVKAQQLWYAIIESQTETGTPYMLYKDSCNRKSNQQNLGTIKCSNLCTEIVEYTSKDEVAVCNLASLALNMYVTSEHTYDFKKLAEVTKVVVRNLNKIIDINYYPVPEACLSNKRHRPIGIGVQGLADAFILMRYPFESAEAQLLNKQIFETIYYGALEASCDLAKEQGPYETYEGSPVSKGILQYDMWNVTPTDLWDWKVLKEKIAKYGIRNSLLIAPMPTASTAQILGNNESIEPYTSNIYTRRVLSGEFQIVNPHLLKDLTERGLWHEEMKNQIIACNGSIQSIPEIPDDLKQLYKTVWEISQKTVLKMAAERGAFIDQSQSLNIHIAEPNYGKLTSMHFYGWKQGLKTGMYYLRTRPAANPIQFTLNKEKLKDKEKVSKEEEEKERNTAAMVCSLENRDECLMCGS
UniProt O43159: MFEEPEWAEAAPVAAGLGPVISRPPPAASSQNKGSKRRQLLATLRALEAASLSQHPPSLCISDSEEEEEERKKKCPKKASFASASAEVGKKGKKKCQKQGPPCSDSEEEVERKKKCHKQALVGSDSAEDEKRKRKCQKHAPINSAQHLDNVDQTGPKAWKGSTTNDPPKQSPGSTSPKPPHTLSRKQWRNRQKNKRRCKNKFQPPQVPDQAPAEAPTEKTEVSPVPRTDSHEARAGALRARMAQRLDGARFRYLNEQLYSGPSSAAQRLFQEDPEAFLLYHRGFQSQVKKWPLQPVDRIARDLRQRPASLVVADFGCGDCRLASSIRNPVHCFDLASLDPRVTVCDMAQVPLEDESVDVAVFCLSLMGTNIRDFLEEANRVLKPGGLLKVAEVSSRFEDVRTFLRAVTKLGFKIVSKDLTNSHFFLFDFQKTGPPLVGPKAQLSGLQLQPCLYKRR

| Target | probe-labelled cysteine peptide fold change |
| --- | --- |
| RSBN1L_Q6PCB5_610_DVICFHAEDFLEVVQR (UniProt Q6PCB5) | 0.2 |
| RSBN1L_Q6PCB5_818_EELCPGNLSLVDTR (UniProt Q6PCB5) | -0.286 |
| RPUSD2_Q8IZ73_246_LLAENEDVVVVDKPSSIPVHPCGR (UniProt Q8IZ73) | -0.225 |
| RPS3_P23396_134_GCEVVVSGK (UniProt P23396) | 0.0505 |
| RPS21_P63220_17_CSASNR (UniProt P63220) | -0.0654 |
| RPS2_P15880_222_KLLMMAGIDDCYTSAR (UniProt P15880) | -0.607 |
| RPS5_P46782_66_KAQCPIVER (UniProt P46782) | -0.0951 |
| RRAGB_Q5VZM2_280_ATFLVISHYQCK (UniProt Q5VZM2) | 0.237 |
| RRP12_Q5JTH9_799_VLEEVCASPQGPGALFVQSHLEDLK (UniProt Q5JTH9) | 0.135 |
| RPS4X_P62701_181_FDTGNLCMVTGGANLGR (UniProt P62701) | -0.0405 |
| RPS3A_P61247_111_MCSMVK (UniProt P61247) | -0.0372 |
| RSBN1_Q5VWQ0_621_DVICFHAEDFTDVVQR (UniProt Q5VWQ0) | 0.189 |
| RUVBL2_Q9Y230_375_IRCEEEDVEMSEDAYTVLTR (UniProt Q9Y230) | 0.0937 |
| RREB1_Q92766_291_DAMGRPFIQNNPSIPAGFHDLGFTDFSCR (UniProt Q92766) | -0.0626 |
| RRM1_P23921_662_NQIIACNGSIQSIPEIPDDLK (UniProt P23921) | 0.106 |
| RPS15A_P62244_30_RQVLIRPCSK (UniProt P62244) | 0.075 |
| RPS11_P62280_131_DVQIGDIVTVGECRPLSK (UniProt P62280) | -0.067 |
| RPS12_P25398_108_VVGCSCVVVK (UniProt P25398) | 0.0354 |
| RRP8_O43159_317_QRPASLVVADFGCGDCR (UniProt O43159) | 0.0874 |
| RPS20_P60866_70_TPCGEGSK (UniProt P60866) | 0.021 |
| SAMD9_Q5K651_420_CHPDQTK (UniProt Q5K651) | 0.073 |
| RPS27A_P62979_121+126_RECPSDECGAGVFMASHFDR (UniProt P62979) | -0.507 |

Some of the entries so far, as comma-separated lines:
Target,probe-labelled cysteine peptide fold change
RUVBL2_Q9Y230_375_IRCEEEDVEMSEDAYTVLTR (UniProt Q9Y230),0.0937
RREB1_Q92766_291_DAMGRPFIQNNPSIPAGFHDLGFTDFSCR (UniProt Q92766),-0.0626
